Values from PubChem BioAssay AID602196 (INSERM, 2012).

- Purpose: 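Genes whose knock-down alters cisplatin killing of lung cancer cells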
- System: human A549 lung cancer cells
- Reagent: siRNA pair against human genes
- Timing: 48 h transfection before cisplatin; time from cisplatin to read-out not stated
- Conditions: cisplatin at a dose killing half of control-siRNA cells; exact dose and duration not given
- Read-out: 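Cisplatin cell death as a shift from the 50% death seen with control siRNA; siRNAs toxic or growth-blocking alone scored 0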
- Scale: two-siRNA summed score (-2 to +2): higher = both siRNAs protect from cisplatin killing; -2 means both sensitise
- Hit rule: 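Each siRNA scores 0 if harmful alone by LDH or WST-1, otherwise +1 if it reduces and -1 if it increases cisplatin killing; a gene is active when both siRNAs agree (sum +2 or -2)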
- Meaning of the calls: active = both siRNAs shift cisplatin killing the same way; inactive = no consistent shift, or siRNA harmful alone
Shown is a random part of about 23,000 deposited reagents. 455 of them (2%) count as active. 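Active includes both protection and sensitisation; some change values fall well beyond the stated -50 to +50 range.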 Further read-outs or replicates are left out here. Not given: the amount of reagent.

ARL4C gave two-siRNA summed score (-2 to +2) = 1; inactive. Knock-down of LOC392242 resulted in: two-siRNA summed score (-2 to +2) = -1; inactive. With knock-down of KIAA1970, the screen gave two-siRNA summed score (-2 to +2) = 0; inactive. Silencing of RBBP5 resulted in: two-siRNA summed score (-2 to +2) = -1; inactive. Silencing of LOC440818 came out at: two-siRNA summed score (-2 to +2) = 0; inactive. Against CPNE9, the values are two-siRNA summed score (-2 to +2) = 0; inactive.

With knock-down of SLC46A1 the results were two-siRNA summed score (-2 to +2) = 0; inactive. PGBD4 gave two-siRNA summed score (-2 to +2) = 0; inactive. With knock-down of PTPN9, the screen gave two-siRNA summed score (-2 to +2) = 1; inactive. Silencing of NDRG1 came out at: two-siRNA summed score (-2 to +2) = 0; inactive. PRELID3B gave two-siRNA summed score (-2 to +2) = 0; inactive. Against KLRC4, the entry reads two-siRNA summed score (-2 to +2) = -2; active.

CD160 showed two-siRNA summed score (-2 to +2) = -1; inactive. Against RNF144A, the values are two-siRNA summed score (-2 to +2) = -1; inactive. SCRN1 scored two-siRNA summed score (-2 to +2) = 1; inactive. With knock-down of PRDX3, the screen gave two-siRNA summed score (-2 to +2) = 1; inactive. With knock-down of NTF3, the record shows two-siRNA summed score (-2 to +2) = 1; inactive. CCDC62 showed two-siRNA summed score (-2 to +2) = 0; inactive.

IFNL2 scored two-siRNA summed score (-2 to +2) = 1; inactive. After knock-down of TECR, the screen gave two-siRNA summed score (-2 to +2) = 0; inactive. CREB3 gave two-siRNA summed score (-2 to +2) = 0; inactive.

Look-ups from the list:
For “Outcome”, KIAA1970 is entered as inactive
SLC46A1, Outcome: inactive
For “Outcome”, CPNE9 is entered as inactive
